Source: ChEMBL document CHEMBL4715790, “An Unusual Binding Model of the Methyl 9-Anilinothiazolo[5,4-f] quinazoline-2-carbimidates (EHT 1610 and EHT 5372) Confers High Selectivity for Dual-Specificity Tyrosine Phosphorylation-Regulated Kinases” (J Med Chem, 2016)

Chains of the proteins cited; added tags and fusions are not shown.
UniProt Q9Y463, whole entry: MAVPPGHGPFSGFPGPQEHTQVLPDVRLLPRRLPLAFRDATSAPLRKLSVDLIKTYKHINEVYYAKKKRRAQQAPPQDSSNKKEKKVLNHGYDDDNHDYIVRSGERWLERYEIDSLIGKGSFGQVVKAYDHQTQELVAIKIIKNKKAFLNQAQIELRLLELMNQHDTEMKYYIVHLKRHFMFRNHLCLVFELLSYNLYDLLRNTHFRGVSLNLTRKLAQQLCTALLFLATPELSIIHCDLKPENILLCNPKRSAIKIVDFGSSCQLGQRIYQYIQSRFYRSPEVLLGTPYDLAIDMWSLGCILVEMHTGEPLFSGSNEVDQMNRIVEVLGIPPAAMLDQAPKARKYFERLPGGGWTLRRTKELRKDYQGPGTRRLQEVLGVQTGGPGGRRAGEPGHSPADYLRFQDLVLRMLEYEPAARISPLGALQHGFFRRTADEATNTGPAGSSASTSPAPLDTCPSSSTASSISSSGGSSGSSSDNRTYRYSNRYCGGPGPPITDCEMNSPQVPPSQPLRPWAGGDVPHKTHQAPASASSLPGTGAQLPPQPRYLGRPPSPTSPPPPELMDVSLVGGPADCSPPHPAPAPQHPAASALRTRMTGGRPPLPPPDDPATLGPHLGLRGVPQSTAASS

Biological target: Dual specificity tyrosine-phosphorylation-regulated kinase 1B (Homo sapiens, UniProt Q9Y463)

For COc1ccc2c(c1)[nH]c1c(C)nccc12 [HARMINE], the IC50 was 57.4 nM.
